Certain results were filed several times, with different values. This is not the full list of results. The source may hold further records. Results that share an entry do not match, cause unknown; dose, time, organism, isomer or construct need not be as stated for each record.

This series in a line: Pharmacokinetic analysis in mice. To be noted: 50 mg/kg, ip, bid.

As to `CSc1nc(N)cc(Oc2ccc(-c3nnc(Nc4cccc(C(F)(F)F)c4)[nH]3)cc2)n1` [Compound 6], the Cmax (commonly the maximum level reached in the sampled fluid or tissue) was 3.6 μg/ml and 7.7 µM.

The values are drawn from patent publication US9260417B2, “Therapeutic methods and compositions involving allosteric kinase inhibition” (AMITECH THERAPEUTIC SOLUTIONS, INC., priority 2010, dated 2016).
